# Data published in patent US11571480B2 (priority 2015, dated 2023).
# Some peptides are written in HELM: one residue between dots, names in brackets for other building blocks, links after the first $.
# Test: general procedure: Fmoc solid-phase peptide synthesis; Wang Resin (1.1 mmol/g); Fmoc-Arg(pbf)-Wang Resin 0.53 mmol/g; DIC/HOBt
# Details: conjugation step; for final purity (method not given): HPLC
Substance,conjugation yield [%],final purity (method not given) [%]
"PEPTIDE1{[Pte].[gGlu].C.K.E.F.L.H.P.S.K.V.D.L.P.R}|CHEM1{[mcVCPABMMAE]}$PEPTIDE1,CHEM1,3:R3-1:R1$$$V2.0",85.02,99.2
"PEPTIDE1{R.R.R.R.R.R.R.R.R.C.K.E.F.L.H.P.S.K.V.D.L.P.R}|CHEM1{[mcVCPABMMAE]}$PEPTIDE1,CHEM1,10:R3-1:R1$$$V2.0",81.34,98.7
